Values from PubChem BioAssay AID686943 (Drosophila RNAi Screening Center, 2013).
Screen: 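Knockdowns that increase or decrease active ERK after insulin receptor stimulation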 (primary screen). Cells: Drosophila S2R+ haemocyte-like cells expressing YFP-tagged ERK (Rolled). Knock-down reagent: long dsRNA against Drosophila genes. Challenge: insulin stimulation versus unstimulated cells; dose and duration not given. Read-out: 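Antibody staining for doubly phosphorylated ERK divided by ERK-YFP signal, as plate z-scores, in insulin-treated and untreated cells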. Direction: replicate 1, z-score of dpERK with insulin: higher = more active ERK per ERK-YFP after insulin.
In all, the deposit lists about 23,000 reagents; below is a random part of those with a known target gene and a result. 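Extra replicates exist only for a retested subset of genes; insulin dose and duration not given; both raised and lowered dpERK matter.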 Names joined by + are all predicted targets of the reagent. Not all columns of the deposit are shown. Not given: the amount of reagent, the time to read-out.

MRG15 (MORF-related gene 15) [DRSC16731]: replicate 1, z-score of dpERK with insulin = 0.32
Atf6 [DRSC04743]: replicate 1, z-score of dpERK with insulin = 0.59
Atf6 [DRSC04889]: replicate 1, z-score of dpERK with insulin = 0.8
Ir20a (Ionotropic receptor 20a) [DRSC20506]: replicate 1, z-score of dpERK with insulin = -0.27

An excerpt from the list above, as a working copy:
Atf6 [DRSC04889]: replicate 1, z-score of dpERK with insulin = 0.8
Ir20a (Ionotropic receptor 20a) [DRSC20506]: replicate 1, z-score of dpERK with insulin = -0.27

The listing continues:
Tnpo-SR (Transportin-Serine/Arginine rich) [DRSC00546]: replicate 1, z-score of dpERK with insulin = -0.3
Obp50c + Obp50b [DRSC05482]: replicate 1, z-score of dpERK with insulin = -0.27
CG7272 [DRSC10795]: replicate 1, z-score of dpERK with insulin = 1.04
Cyp4e1 (Cytochrome P450 4e1) [DRSC07370]: replicate 1, z-score of dpERK with insulin = -0.25
Ctu2 (Cytosolic thiouridylase subunit 2) [DRSC02024]: replicate 1, z-score of dpERK with insulin = 0.32
CG7457 [DRSC10849]: replicate 1, z-score of dpERK with insulin = -0.57
kz (kurz) [DRSC18786]: replicate 1, z-score of dpERK with insulin = -0.31
Pcp (Pupal cuticle protein) [DRSC03395]: replicate 1, z-score of dpERK with insulin = -0.17
